Measurements: US20240082221A1, “COMPOSITIONS AND METHODS FOR THE IDENTIFICATION OF COMPOUNDS THAT PROTECT AGAINST LIPOFUSCIN CYTOTOXICITY” (priority 2021, published 2024)
For at least one compound, name, drawing or mass did not settle the structure.

System: ARPE-19 cells
Details: ARPE19 pretreated 1 hr, then A2E 25 μM for 24 hrs in presence of drug, AlamarBlue
Procedure: Cell Viability Assay. […] 1× AlamarBlue solution prepared in OptiMEM was used to replace the media supernatant and the plate's fluorescence was determined at 555 nm excitation/585 nm emission with a SpectraMax M (Molecular Devices, CA, USA), after 1 h. […] The exact timing of appearance of far-red (DRAQ7=plasma membrane leakage) and blue (NUC405=caspase 3 activation) fluorescence signals was critical to differentiate apoptosis and necrosis from secondary events, such as membrane damage and generalized proteolytic activation during the late phase of apoptosis and necrosis, respectively.
Real time monitoring of necrotic and apoptotic cell-death. Cell-death assay to study Lipofuscin's dark toxicity was performed. 90% confluent ARPE-19 or hfRPE were incubated overnight in serum free media supplemented with indicated LB concentration. Viability was assessed at 24 hrs by AlamarBlue®, or microscopy with NUC405/DRAQ7. Real time monitoring of necrotic (red) and apoptotic (blue) cell-death was performed by automated fluorescence microscopy. The exact timing of appearance of far-red (DRAQ7=plasma membrane leakage) and blue (NUC405=caspase 3 activation) fluorescence signals was critical to differentiate apoptosis and necrosis from secondary events, such as membrane damage and generalized proteolytic activation during the late phase of apoptosis and necrosis, respectively.
Chemical inhibitors. […]

SMILES: CO[C@H]1C[C@@H]2CC[C@@H](C)[C@@](O)(O2)C(=O)C(=O)N2CCCC[C@H]2C(=O)O[C@H]([C@H](C)C[C@@H]2CC[C@@H](O)[C@H](OC)C2)CC(=O)[C@H](C)/C=C(\C)[C@@H](O)[C@@H](OC)C(=O)[C@H](C)C[C@H](C)/C=C/C=C/C=C/1C [Rapamycin]
- protection against lethal doses of A2E, viability: did not confer significant protection
